Source: PubChem BioAssay AID1259424 (University of Nebraska Medical Center, 2018)
The deposit covers about 14,000 reagents; this is a random part of them. 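Higher correlation or smaller distance means closer resemblance to KSR1 loss; control wells, including KSR1 knockdowns, recur on many plates.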 Not stated in the record: the time to read-out.

Aim: 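Find knockdowns that reproduce the expression shifts seen after KSR1 loss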 (primary screen)
System: human HCT116 colon cancer cells
Reagents: siRNA pool against human genes, 50 nM
Measurement: 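Six signature mRNAs by branched-DNA multiplex assay, scaled to two housekeeping genes and non-targeting median, log2; matched to mean KSR1 knockdown profile by Pearson correlation and euclidean distance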
Direction: mean correlation with KSR1 profile and KSR1 correlation: higher = expression change more like KSR1 knockdown; mean distance from KSR1 profile: higher = expression change less like KSR1 knockdown

| gene | mean correlation with KSR1 profile | mean distance from KSR1 profile | KSR1 correlation, replicate 1 | KSR1 correlation, replicate 2 | KSR1 correlation, replicate 3 |
| --- | --- | --- | --- | --- | --- |
| UBE2I (GeneID 7329) | -0.00123 | 3.56 | 0.095 | -0.0699 | -0.202 |
| EPRS1 (GeneID 2058) | 0.565 | 1.7 | 0.589 | 0.46 | 0.502 |
| CSRP3 (GeneID 8048) | -0.581 | 2.89 | -0.538 | -0.705 | -0.584 |
| PDE4B (GeneID 5142) | 0.704 | 0.688 | 0.555 | 0.809 | 0.765 |
| VASH1 (GeneID 22846) | -0.605 | 1.97 | -0.286 | -0.647 | -0.689 |
| AKAP6 (GeneID 9472) | 0.881 | 1.68 | 0.941 | 0.862 | 0.543 |
| PODXL (GeneID 5420) | 0.774 | 0.78 | 0.821 | 0.862 | 0.705 |
| ATG5 (GeneID 9474) | -0.111 | 1.87 | -0.185 | -0.154 | -0.212 |
| NGLY1 (GeneID 55768) | 0.0153 | 1.18 | -0.163 | -0.427 | 0.132 |
| MELTF (GeneID 4241) | -0.28 | 2.65 | -0.307 | -0.454 | -0.238 |
| SEZ6L2 (GeneID 26470) | -0.405 | 2.07 | -0.52 | -0.36 | -0.28 |

Laid out differently: 3 of the entries above.
gene,mean correlation with KSR1 profile,mean distance from KSR1 profile,"KSR1 correlation, replicate 1","KSR1 correlation, replicate 2","KSR1 correlation, replicate 3"
CSRP3 (GeneID 8048),-0.581,2.89,-0.538,-0.705,-0.584
PDE4B (GeneID 5142),0.704,0.688,0.555,0.809,0.765
VASH1 (GeneID 22846),-0.605,1.97,-0.286,-0.647,-0.689

Continued.
| gene | mean correlation with KSR1 profile | mean distance from KSR1 profile | KSR1 correlation, replicate 1 | KSR1 correlation, replicate 2 | KSR1 correlation, replicate 3 |
| --- | --- | --- | --- | --- | --- |
| ZDHHC11 (GeneID 79844) | 0.203 | 2.89 | 0.229 | 0.321 | 0.112 |
| H2BC12L (GeneID 54145) | -0.0884 | 1.94 | -0.112 | 0.113 | -0.371 |
| ADAP2 (GeneID 55803) | 0.426 | 1.71 | 0.1 | 0.461 | 0.294 |
| MRPL24 (GeneID 79590) | 0.0155 | 2 | 0.213 | 0.042 | -0.0717 |
| SENP2 (GeneID 59343) | -0.292 | 2.54 | -0.354 | -0.128 | -0.152 |
| CRH (GeneID 1392) | 0.377 | 1.03 | 0.352 | 0.377 | 0.386 |
| GALNS (GeneID 2588) | -0.0789 | 3.73 | 0.208 | 0.0704 | -0.125 |
| PMEPA1 (GeneID 56937) | -0.376 | 3.5 | -0.363 | -0.327 | -0.345 |
| RGS2 (GeneID 5997) | 0.817 | 1.53 | 0.912 | 0.667 | 0.845 |
